PubChem BioAssay AID504764 – Drosophila RNAi Screening Center | 2011

Purpose: 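Genome-wide screen for regulators of Notch-driven gene expression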 (primary screen)
Cells: Drosophila Kc167 cells
Reagents: long dsRNA against Drosophila genes
Duration: about 5 days (4 days dsRNA, then 24 h after transfection)
Challenge: transfection of constitutively active membrane-tethered Notch lacking the extracellular domain, read 24 h later
Detection: 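Firefly luciferase from an E(spl)m3 reporter with active Notch, plus control-promoter and uninduced reporter wells for normalisation; unnormalised counts, duplicate wells a and b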
Direction: induced reporter light, run 1, well a and induced reporter light, run 1, well b: higher = more light from the Notch target reporter with active Notch; control promoter light, run 1, well a and control promoter light, run 1, well b: higher = more light from the viral control promoter (cell number, transfection, viability); uninduced reporter light, run 1, well a: higher = more light from the Notch target reporter without active Notch
Hit rule: 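Wells with low control signal or poorly matching duplicates excluded; duplicates averaged; per source plate, z beyond ±2 for induced/control log2 ratio or beyond ±1.8 for induced/uninduced marks a hit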
Calls: active = modifier hit (raised or lowered Notch signal); inactive = not a hit
In all, the deposit lists about 22,000 reagents; shown is a random part of those that have a named target and a result. Of all reagents, 403 (1.9%) are marked active. 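Unnormalised raw counts per well; ratio z-scores behind the hit calls and whether each hit raises or lowers signal are not deposited.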 No sequences are given here. Not stated in the record: the amount of reagent.

Depletion of Ugt35E1 gave: induced reporter light, run 1, well a = 70790; induced reporter light, run 1, well b = 70805; control promoter light, run 1, well a = 75380; control promoter light, run 1, well b = 72150; uninduced reporter light, run 1, well a = 4285; inactive.
With knock-down of superdeath the results were induced reporter light, run 1, well a = 2.52e5; induced reporter light, run 1, well b = 2.06e5; control promoter light, run 1, well a = 2.72e5; control promoter light, run 1, well b = 2.59e5; uninduced reporter light, run 1, well a = 13555; inactive.
Knock-down of Spn88Eb resulted in: induced reporter light, run 1, well a = 1.58e5; induced reporter light, run 1, well b = 1.16e5; control promoter light, run 1, well a = 1.30e5; control promoter light, run 1, well b = 1.10e5; uninduced reporter light, run 1, well a = 10855; inactive.
CG33796 scored induced reporter light, run 1, well a = 2.16e5; induced reporter light, run 1, well b = 2.05e5; control promoter light, run 1, well a = 2.77e5; control promoter light, run 1, well b = 2.41e5; uninduced reporter light, run 1, well a = 15330; inactive.
After knock-down of fl(2)d, the record shows induced reporter light, run 1, well a = 1.01e5; induced reporter light, run 1, well b = 1.07e5; control promoter light, run 1, well a = 1.09e5; control promoter light, run 1, well b = 82400; uninduced reporter light, run 1, well a = 10335; active.
With knock-down of Tim8, the record shows induced reporter light, run 1, well a = 66190; induced reporter light, run 1, well b = 59365; control promoter light, run 1, well a = 87730; control promoter light, run 1, well b = 79195; uninduced reporter light, run 1, well a = 4755; inactive.
After knock-down of CG6333, the record shows induced reporter light, run 1, well a = 1.96e5; induced reporter light, run 1, well b = 1.76e5; control promoter light, run 1, well a = 3.00e5; control promoter light, run 1, well b = 1.97e5; uninduced reporter light, run 1, well a = 6742; inactive.
Against CG8187, the values are induced reporter light, run 1, well a = 1.15e5; induced reporter light, run 1, well b = 1.26e5; control promoter light, run 1, well a = 2.20e5; control promoter light, run 1, well b = 2.19e5; uninduced reporter light, run 1, well a = 10170; inactive.
For UQCR-C2 the deposit lists induced reporter light, run 1, well a = 67865; induced reporter light, run 1, well b = 65475; control promoter light, run 1, well a = 96290; control promoter light, run 1, well b = 75020; uninduced reporter light, run 1, well a = 2960; inactive.
For dmrt11E the deposit lists induced reporter light, run 1, well a = 1.27e5; induced reporter light, run 1, well b = 1.17e5; control promoter light, run 1, well a = 1.89e5; control promoter light, run 1, well b = 1.97e5; uninduced reporter light, run 1, well a = 8428; inactive.
Against CG10621, the entry reads induced reporter light, run 1, well a = 83840; induced reporter light, run 1, well b = 47635; control promoter light, run 1, well a = 47575; control promoter light, run 1, well b = 60505; uninduced reporter light, run 1, well a = 3040; inactive.
Silencing of g gave: induced reporter light, run 1, well a = 54470; induced reporter light, run 1, well b = 64420; control promoter light, run 1, well a = 43835; control promoter light, run 1, well b = 71035; uninduced reporter light, run 1, well a = 4535; inactive.
